In patent US20250333513A1 (Immunocore, published 2025):
Results are given in words; binding and its absence hold for the method and conditions named. Some results given as binding are weak or reduced against the parent protein; the word gives no strength. One block for each binder: values may come before it.

The chains behind the UniProt entries cited, without tags or fusion partners. Where a name states a change or a piece, a line headed by the entry shows the natural chain unless it says otherwise. Residues count along the entry.
UniProt Q15116: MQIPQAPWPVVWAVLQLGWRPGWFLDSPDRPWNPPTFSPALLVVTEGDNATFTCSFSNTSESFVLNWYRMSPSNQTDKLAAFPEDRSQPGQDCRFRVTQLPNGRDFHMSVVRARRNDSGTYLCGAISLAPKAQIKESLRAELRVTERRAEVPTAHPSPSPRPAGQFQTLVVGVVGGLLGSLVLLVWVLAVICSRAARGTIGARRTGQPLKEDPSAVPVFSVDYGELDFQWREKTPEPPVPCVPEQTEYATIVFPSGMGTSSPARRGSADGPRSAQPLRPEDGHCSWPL
UniProt P06126, residues 17-300: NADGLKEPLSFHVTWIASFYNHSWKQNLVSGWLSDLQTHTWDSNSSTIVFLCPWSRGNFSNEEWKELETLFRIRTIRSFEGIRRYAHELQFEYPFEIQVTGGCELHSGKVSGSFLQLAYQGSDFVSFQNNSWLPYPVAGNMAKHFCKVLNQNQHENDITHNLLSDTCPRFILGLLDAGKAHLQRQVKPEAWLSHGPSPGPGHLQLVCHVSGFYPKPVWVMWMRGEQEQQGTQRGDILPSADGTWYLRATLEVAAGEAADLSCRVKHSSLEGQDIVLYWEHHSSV

Tests used:
[1] = target: T1, extracellular region of human PD-1 (human, UniProt Q15116 25-170); test: crystallography
T1 construct: also called extracellular domain of human PD-1

[2] = target: recombinant human CD1a protein (human) (UniProt P06126); test: crystal structure

binding [1]: binds
B1: PD-1 agonist VHH (camelid PD-1 agonist VHH) (VHH)
VHH: EVQLVESGGALVQPGGSLRLSCAASGFTFSSYAMTWVRQAPGKGPEWVSAIASDGASTSYLDSVKGRFTVSRDNAKNTLYLQMNSLKPEDTAVYYCARGGYLTYDRYGQGTQVTVSS
notes: also called PD-1 VHH domain; PD-1 VHH antibody

binding [2]: binds
B2: Ab007 WT VHH CD1a antibody (Ab007 Llama WT) (VHH)
VHH: EVQLVESGGRLAQAGGSLRLSCAASGRAFRPHNVMAWFRQAPEKEREFVAAARWSGIYYAESVKGRFSVSRDYDKNAVFLQMNGLKPEDTAVYYCAVSTAQDMTLALMSDYDYWGQGIQVTVSS

binding [2]: binds
B3: Ab002 WT VHH CD1a antibody (Ab002 Llama WT) (VHH)
VHH: EVQLVESGGGLVQAGGSLRLSCAPSGRTFNPGDLMGWFRQAPGKEREFVAAIKWGPTYYADSVKGRFTISRDYVRNTVYVQMNDLKAEDTAVYYCAGKGSGTFSSNYRDFEYWGQGTQVTVSS
